From PubChem BioAssay AID2685 (National Center for Advancing Translational Sciences (NCATS), 2010)
The other results are listed elsewhere or left out. The main result of the screen is listed elsewhere. These columns were measured beside it and carry no call. Compounds called inactive in the main read-out are mostly missing here. Words in brackets tell the shape of the fitted curve; partial curves, single points and poor fits give uncertain potencies.

Experiment: qHTS Assay for Lipid Storage Modulators in Drosophila S3 Cells;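 as to cell number change: cells counted by Cell Tracker Red CMTPX staining in the red channel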
Settings: BODIPY lipid droplet fluorescence, 18-24 h; for cell number change: measured here: cell count max response, cells fed with added oleic acid
Outline: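 Laser-scanning cytometry quantifies lipid droplet accumulation (500–530 nm total intensity; droplet/cell object ratio) in oleic acid-fed (400 uM added) Drosophila S3 cells treated with a concentration series. 20 uM Triacsin C defined 100% inhibition.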

[1] = measured here: cell number channel AC50, cells fed with added oleic acid
[2] = measured here: lipid fluorescence (Fed channel) AC50, cells fed with added oleic acid

Compound | AC50 [1] | AC50 [2] | cell number change [%]
CCOC(=O)Nc1cccc(Nc2ccccc2)c1 | 92 nM [rising, full curve, poor fit] | 130 nM [rising, full curve, poor fit] | –
CCN(c1ccccc1)S(=O)(=O)c1ccc(OC)c(NC(=O)C2CC2)c1 | – | 3660 nM [rising, single point] | 0.13
O=C(O)CSc1cc(C(=O)c2cc(F)ccc2O)cn2c(=O)c3c(-c4ccccc4)csc3nc12 | – | 32600 nM [falling, single point] | -24.4
COc1ccc(C2=NN(S(C)(=O)=O)C(c3ccc4nccnc4c3)C2)cc1 (configuration not stated) | – | 2060 nM [rising, full curve] | -6.48
CCN(CC)c1ccc(C(=O)N/N=C/c2ccccc2OC(F)F)cc1 | – | 18400 nM [rising, single point] | 14.7
Cc1ccc(OCCOCCNC(C)(C)C)c([N+](=O)[O-])c1 | 5.17 nM [rising, full curve, poor fit] | 4.61 nM [rising, full curve, poor fit] | -27.3
O=C1N(c2ccccc2C(F)(F)F)O[C@]1(c1ccccc1)C1CCCC1 | 23100 nM [falling, single point] | – | -59.9
O=C1CCCc2oc3ccc(NS(=O)(=O)c4cccc5cccnc45)cc3c21 | – | – | 1.2
Cc1ccccc1NS(=O)(=O)c1ccc2[nH]cc(C(=O)NCCc3ccccc3)c(=O)c2c1 | – | 20600 nM [rising, partial curve] | 17.8
CCCNS(=O)(=O)c1ccc(NC(=O)c2cccnc2)cc1 | 23100 nM [rising, single point] | – | 128
CNC[C@@H](Cc1ccccc1)NC[C@@H](CC1CCCCC1)NCCCc1ccccc1 | – | 8200 nM [falling, single point] | -29.3
Cn1c(=O)c2sccc2n2c(CCCC(=O)N3CCN(c4ccccn4)CC3)nnc12 | – | 6510 nM [falling, single point] | 20.3
O=C(Cc1ccccc1[N+](=O)[O-])NCc1ccc(Cl)cc1 | 6510 nM [rising, single point] | 1640 nM [rising, partial curve] | –
COc1ccc(-c2cc(=O)oc3cc(OCC(C)=O)ccc23)cc1 | 146 nM [falling, full curve, poor fit] | – | -51.3
O=C(NC1CCCCC1)N1CCCCCC1 | 1300 nM [falling, full curve] | 231 nM [falling, full curve, poor fit] | -59.3
Cc1[nH]c(=O)[nH]c(=O)c1S(=O)(=O)N1CCCC(C(=O)NCc2ccccc2Cl)C1 (configuration not stated) | – | 731 nM [rising, full curve, poor fit] | –
COC(=O)C(CCSC)NC(=O)c1cc2c(n(-c3ccc(C)cc3)c1=O)CCCC2=O (configuration not stated) | – | 25900 nM [falling, single point] | -19.8
Cc1sc2ncnc(N3CCC(C(=O)NNC(=O)COc4ccccc4Cl)CC3)c2c1C | 6510 nM [rising, full curve, poor fit] | 116 nM [rising, full curve, poor fit] | 32.9
CN(C(=O)c1cc2c(s1)-c1ccccc1S(=O)(=O)C2)c1ccccc1 | – | 5.17 nM [rising, partial curve, poor fit] | 3.48
CN(c1ccccc1C(=O)N1CCc2ccccc2C1)S(C)(=O)=O | 116 nM [falling, single point] | – | -8.8

Part of the list above, as tab-separated lines:
Compound	AC50 [1]	AC50 [2]	cell number change [%]
O=C1CCCc2oc3ccc(NS(=O)(=O)c4cccc5cccnc45)cc3c21	–	–	1.2
COC(=O)C(CCSC)NC(=O)c1cc2c(n(-c3ccc(C)cc3)c1=O)CCCC2=O (configuration not stated)	–	25900 nM [falling, single point]	-19.8
CN(C(=O)c1cc2c(s1)-c1ccccc1S(=O)(=O)C2)c1ccccc1	–	5.17 nM [rising, partial curve, poor fit]	3.48

Later entries:

Compound | AC50 [1] | AC50 [2] | cell number change [%]
CCCN1CCN(C(=O)Cn2ncc3ccccc32)CC1 | 820 nM [falling, full curve, poor fit] | 820 nM [falling, full curve, poor fit] | -34.8
O=C(NCCN1CCOCC1)c1cccc(S(=O)(=O)NCc2ccccc2)c1 | 731 nM [falling, single point] | – | -5.72
COc1cccc(NC(=O)CN(C)C(=O)c2cc3c(s2)CCCC3)c1 | – | 6510 nM [falling, single point] | -2.13
CC(C)C(Sc1nc(-c2ccccc2)cc(-c2ccccc2)c1C#N)C(=O)O (configuration not stated) | – | 18400 nM [falling, single point] | 3
Cc1nn(Cc2c(Cl)cccc2Cl)c(C)c1NC(=O)/C=C/c1cnn(C)c1C | – | 29100 nM [rising, single point] | 10.5
CC(=O)Nc1ccc(S(=O)(=O)c2c(N)n(CCN3CCOCC3)c3nc4ccccc4nc23)cc1 | – | 3260 nM [rising, full curve, poor fit] | 5.17
O=C(Nc1ccc(NC(=O)c2sc3ccccc3c2Cl)cc1)c1ccco1 | – | 5.17 nM [rising, full curve, poor fit] | 11.8
O=C(Nc1nc2ccccc2s1)C1CC(=O)N(c2ccc(F)cc2)C1 (configuration not stated) | – | – | -1.75
CCOC(=O)c1sc2nccc(N(C)C)c2c1N=CNOCc1c(F)cccc1Cl | 29100 nM [rising, single point] | 10300 nM [rising, partial curve] | 34.9
Cc1cccc(C(=O)N/N=C/c2ccoc2)c1 | – | 112 nM [falling, full curve, poor fit] | 6.48
COc1ccc(-c2ccc(-c3noc(C)n3)c(OC)n2)cc1 | – | 3660 nM [rising, single point] | 16.6
O=C(CCc1nc2ccccc2c(=O)[nH]1)NC1CCN(Cc2ccccc2)CC1 | – | – | -8.29
O=C(NC1CCCCC1)C(c1ccc(Cl)cc1)N1CCC2(CC1)OCCO2 (configuration not stated) | – | 29100 nM [falling, single point] | -1.84
Cc1cccc2sc(NC(=O)CCNS(=O)(=O)c3cccc4nonc34)nc12 | – | 1030 nM [rising, single point] | -23.3
COc1ccccc1N1CCN(C2CCN(C(=O)COc3ccccc3)CC2)CC1 | 1300 nM [falling, full curve, poor fit] | 1160 nM [falling, full curve] | -37
COc1cccc(-c2cc(C(=O)N3CCN(C(=O)c4ccco4)CC3)on2)c1 | – | – | -5.01
Fc1ccc(-c2nc3ccncc3[nH]2)cc1 | 6510 nM [rising, single point] | 1640 nM [rising, partial curve] | –
CCOC(=O)c1c(NC(=O)CN2CCN(C(=O)c3ccco3)CC2)sc(C)c1C | – | – | -10.8
C=CCSC(=S)Nc1c(C)n(C)n(-c2ccccc2)c1=O | 259 nM [falling, full curve] | 259 nM [falling, full curve] | -38.3
CCc1sc(N(C(=O)Cc2ccccc2)c2ccccc2)nc1-c1ccccc1 | 411 nM [falling, full curve, poor fit] | 14600 nM [falling, partial curve] | -8.37

Compound | AC50 [1] | AC50 [2] | cell number change [%]
CNC(=S)N/N=C/c1c2ccccc2c(Cl)c2ccccc12 | – | 4.61 nM [rising, full curve, poor fit] | -2.1
CCOc1ccc(S(=O)(=O)NCCCn2ccnc2)cc1 | – | 6510 nM [rising, single point] | -17.4
Cc1ccc(CN(C)C(=O)C2CCN(C(=O)Nc3ccccc3)CC2)o1 | – | – | 28.5
Cc1cc(F)ccc1NC(=O)c1cc(S(=O)(=O)N2CCOCC2)cn1C | – | 18400 nM [rising, single point] | 8.36
CCOc1ccccc1C1NC(=O)NC(C)=C1C(=O)OCc1ccccc1 (configuration not stated) | – | 259 nM [falling, single point] | -4.73
Cc1c(C)n(CCCN(C)C)c2ncnc(Nc3ccccc3)c12 | 6510 nM [rising, single point] | – | –
Cc1cccc(CN2CCC(CNC(=O)CCNC(=O)Cn3ccc4ccccc4c3=O)CC2)c1 | 20600 nM [falling, partial curve] | 20600 nM [falling, partial curve] | -120
COc1ccc(CN(C)C(=O)CCN2C(=O)c3ccccc3C2=O)c(OC)c1OC | – | – | -8.97
CCN1CCN(c2nc(Nc3cccc(OC)c3)nc(N)c2[N+](=O)[O-])CC1 | – | 5800 nM [rising, partial curve] | 22.8
COc1ccccc1CCn1cnc2c3cc(C)ccc3n(C)c2c1=O | 4110 nM [rising, single point] | 2910 nM [rising, partial curve] | 10
COC(=O)c1cn(NC(=O)COc2ccc(Cl)cc2)c(=O)c2ccccc12 | – | – | -36.4
COc1ccc(-c2nc(-c3cccnc3)no2)cc1 | – | – | -0.483
O=C(COc1ccc(Cl)cc1Cl)Nc1ccc(C(=O)Nc2ccccc2C(=O)O)cc1 | 25900 nM [rising, single point] | – | 50.2
Cc1cc(C)c(C(=O)CSc2n[nH]c(-c3ccncc3)n2)c(C)c1 | 5.17 nM [falling, full curve, poor fit] | 4.61 nM [falling, full curve, poor fit] | -3.9
CCCOc1ccc(Cc2nn[nH]n2)cc1 | – | 231 nM [falling, full curve] | -11.2
Cc1ccc(S(=O)(=O)Nc2cc3c4c(c2)CC(=O)N4CCC3)cc1 | 1460 nM [rising, partial curve] | – | –
Cc1cc(NC(=NC2CC2)c2ccccc2)n(-c2ccccc2)n1 | 20600 nM [rising, single point] | 29100 nM [rising, single point] | 40.8
Cc1cc(C)c2c(c1)/C(=N/NC(=S)Nc1ccc(F)cc1)CCC2 | 14600 nM [falling, single point] | 326 nM [rising, full curve] | -36.8
